According to PMC4473678, “Swedish mutant APP-based BACE1 binding site peptide reduces APP β-cleavage and cerebral Aβ levels in Alzheimer’s mice” (Scientific Reports, 2015):

Test system: BACE1, ADAM10 and ADAM17
Assay: WB of secretase expression in brain homogenates, 5XFAD mice
Assay type: in vivo, mouse
Settings: 8 weeks, TAT-APPsweBBP, TAT and PBS groups compared

## YGRKKRRQRRREISEVNLDAEFR [APPsweBBP conjugated with the membrane fusion fragment of HIV-1 Tat protein]
  ADAM10 expression in brain homogenates: not significantly different; also recorded: comparable expression levels
  ADAM17 expression in brain homogenates: not significantly different; also recorded: comparable expression levels
  BACE1 expression in brain homogenates: not significantly different; also recorded: comparable expression levels

Entries after “also recorded” stand apart in the source; their conditions may differ.
